{
  "source": "patent US20210244686A1",
  "about": "“Novel Systems And Methods For The Therapeutic Use of Cannabinoids or Cannabinoid Analogs to Increase The Lipid Order of Cholesterol Containing Cell Membranes” (The Regents of the University of Colorado a body corporate, priority 2018, published 2021)",
  "key": {"SK-N-BE(2) cells": {"system": "SK-N-BE(2) cells", "assay": "Live cell microscopy apoptosis assay (caspase 3/7 dye)", "conditions": "15 hours; Atorvastatin 10 μM", "procedure": "(§1) To accurately measure cellular apoptosis over time, the present inventors performed live cell microscopy experiments with cells loaded with both DNA and caspase 3/7 dyes, which enables continuous and precise quantification of apoptosis at the single cell level.\n(§2) Cell viability for SK-N-BE(2) cells was conducted using a fluorometric cell viability assay using Resazurin (PromoKine) according to the manufacturer's instructions. […] Dyes were added at the time of seeding, 18-24 hours prior to performing experiments.\n(§3) Experiments were performed using an ImageXpress MicroXL microscope and a 10× objective, where images were acquired for each well at the indicated time-points using DAPI and FITC filter sets. […] Percent apoptotic cells was calculated from the sum of apoptotic cell pixels divided by the sum of all cell pixels for each field of view."}, "HaCaT cells": {"system": "HaCaT cells", "assay": "Live cell microscopy apoptosis assay (caspase 3/7 dye)", "conditions": "Atorvastatin 10 μM", "procedure": "as §1, §2, §3"}},
  "data": [
    {"smiles": "CC(C)c1c(C(=O)Nc2ccccc2)c(-c2ccccc2)c(-c2ccc(F)cc2)n1CC[C@@H](O)C[C@@H](O)CC(=O)O", "note": "[Atorvastatin]", "values": [
      {"measurement": "toxic effect (apoptosis) of high CBD doses with simultaneous atorvastatin vs CBD alone", "setting": "SK-N-BE(2) cells", "value": "dramatically reduced"},
      {"measurement": "protection from CBD induced apoptosis by inhibition of cholesterol biosynthesis, relative to SK-N-BE(2)", "setting": "HaCaT cells", "value": "far more pronounced"}
    ]}
  ]
}
